Data from patent US20090186036A1.
Results are given in words; binding and its absence hold for the method and conditions named. Some entries that bind do so weakly or less than the wild type.

By UniProt entry, the sequences of proteins in these tests, tags left out. Where a name states a change or a piece, a line headed by the entry shows the natural chain unless it says otherwise.
UniProt P06756: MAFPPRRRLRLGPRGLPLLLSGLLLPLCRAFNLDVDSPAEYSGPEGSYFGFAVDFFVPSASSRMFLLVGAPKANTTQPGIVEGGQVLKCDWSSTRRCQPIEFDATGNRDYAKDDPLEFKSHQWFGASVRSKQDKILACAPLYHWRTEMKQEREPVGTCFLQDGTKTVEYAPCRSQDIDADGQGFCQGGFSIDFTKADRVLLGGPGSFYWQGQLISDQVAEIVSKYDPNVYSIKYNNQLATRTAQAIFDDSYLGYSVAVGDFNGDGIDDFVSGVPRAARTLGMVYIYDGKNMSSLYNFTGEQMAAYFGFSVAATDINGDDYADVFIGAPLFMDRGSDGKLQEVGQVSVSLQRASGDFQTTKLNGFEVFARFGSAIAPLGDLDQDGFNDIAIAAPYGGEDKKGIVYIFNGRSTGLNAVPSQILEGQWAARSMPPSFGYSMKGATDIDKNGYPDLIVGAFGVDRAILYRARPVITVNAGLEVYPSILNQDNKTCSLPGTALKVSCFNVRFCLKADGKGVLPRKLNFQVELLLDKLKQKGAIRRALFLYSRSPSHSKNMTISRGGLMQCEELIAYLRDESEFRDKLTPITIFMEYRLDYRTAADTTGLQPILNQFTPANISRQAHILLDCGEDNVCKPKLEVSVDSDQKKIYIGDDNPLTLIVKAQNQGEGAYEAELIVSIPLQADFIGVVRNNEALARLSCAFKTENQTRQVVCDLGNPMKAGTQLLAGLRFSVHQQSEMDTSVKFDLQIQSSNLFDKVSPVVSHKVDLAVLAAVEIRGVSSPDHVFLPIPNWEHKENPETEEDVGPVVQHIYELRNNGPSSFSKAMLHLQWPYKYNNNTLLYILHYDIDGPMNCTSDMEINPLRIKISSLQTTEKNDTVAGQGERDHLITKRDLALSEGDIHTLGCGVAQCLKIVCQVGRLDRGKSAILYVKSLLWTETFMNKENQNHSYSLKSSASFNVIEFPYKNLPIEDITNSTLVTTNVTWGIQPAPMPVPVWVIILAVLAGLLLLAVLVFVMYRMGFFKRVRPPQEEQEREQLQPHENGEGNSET
UniProt P18564: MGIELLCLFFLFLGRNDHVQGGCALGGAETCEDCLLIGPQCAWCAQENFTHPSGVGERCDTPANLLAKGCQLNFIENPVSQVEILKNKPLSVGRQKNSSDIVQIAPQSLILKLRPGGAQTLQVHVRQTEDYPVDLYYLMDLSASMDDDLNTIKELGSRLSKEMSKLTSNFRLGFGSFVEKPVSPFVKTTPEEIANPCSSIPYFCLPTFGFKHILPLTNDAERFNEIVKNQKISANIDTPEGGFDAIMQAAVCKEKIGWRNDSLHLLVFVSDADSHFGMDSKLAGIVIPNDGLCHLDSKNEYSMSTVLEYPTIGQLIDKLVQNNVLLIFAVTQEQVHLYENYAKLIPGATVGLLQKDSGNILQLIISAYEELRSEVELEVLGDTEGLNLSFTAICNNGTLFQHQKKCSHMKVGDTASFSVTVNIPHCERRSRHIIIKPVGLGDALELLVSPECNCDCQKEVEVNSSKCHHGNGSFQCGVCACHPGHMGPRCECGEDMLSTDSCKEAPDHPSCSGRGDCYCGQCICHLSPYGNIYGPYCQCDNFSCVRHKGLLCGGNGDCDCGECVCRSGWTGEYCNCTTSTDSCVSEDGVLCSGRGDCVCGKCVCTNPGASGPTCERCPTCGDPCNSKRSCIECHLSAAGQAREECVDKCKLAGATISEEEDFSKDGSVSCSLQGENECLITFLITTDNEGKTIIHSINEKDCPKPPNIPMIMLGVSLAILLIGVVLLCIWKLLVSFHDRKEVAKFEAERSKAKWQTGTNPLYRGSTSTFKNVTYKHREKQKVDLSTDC
UniProt P43406: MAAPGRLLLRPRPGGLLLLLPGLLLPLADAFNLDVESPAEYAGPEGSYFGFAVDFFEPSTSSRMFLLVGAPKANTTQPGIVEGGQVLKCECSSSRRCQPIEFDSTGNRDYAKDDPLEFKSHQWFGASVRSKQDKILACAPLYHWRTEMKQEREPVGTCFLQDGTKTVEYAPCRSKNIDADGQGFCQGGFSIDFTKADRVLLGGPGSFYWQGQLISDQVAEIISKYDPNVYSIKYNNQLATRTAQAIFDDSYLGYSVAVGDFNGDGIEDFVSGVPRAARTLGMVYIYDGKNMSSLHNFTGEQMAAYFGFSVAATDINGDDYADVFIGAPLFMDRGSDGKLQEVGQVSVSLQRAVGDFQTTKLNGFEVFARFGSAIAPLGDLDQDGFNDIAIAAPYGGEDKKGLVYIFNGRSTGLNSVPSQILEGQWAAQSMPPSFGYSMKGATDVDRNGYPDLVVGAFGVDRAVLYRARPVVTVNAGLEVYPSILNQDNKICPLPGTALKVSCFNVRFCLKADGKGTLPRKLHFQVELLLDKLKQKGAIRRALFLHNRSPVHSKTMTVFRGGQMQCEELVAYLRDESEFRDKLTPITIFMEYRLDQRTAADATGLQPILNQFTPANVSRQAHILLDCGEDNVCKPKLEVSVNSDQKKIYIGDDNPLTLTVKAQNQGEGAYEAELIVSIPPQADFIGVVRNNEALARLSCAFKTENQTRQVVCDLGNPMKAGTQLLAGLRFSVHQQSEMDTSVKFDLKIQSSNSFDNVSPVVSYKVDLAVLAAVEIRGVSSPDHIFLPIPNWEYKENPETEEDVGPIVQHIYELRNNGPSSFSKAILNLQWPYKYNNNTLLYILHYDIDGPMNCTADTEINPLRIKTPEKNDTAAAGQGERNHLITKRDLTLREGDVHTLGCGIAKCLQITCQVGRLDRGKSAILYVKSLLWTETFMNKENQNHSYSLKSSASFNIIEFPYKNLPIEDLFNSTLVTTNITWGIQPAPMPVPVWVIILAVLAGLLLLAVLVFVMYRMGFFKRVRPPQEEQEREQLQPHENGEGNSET
UniProt Q9Z0T9: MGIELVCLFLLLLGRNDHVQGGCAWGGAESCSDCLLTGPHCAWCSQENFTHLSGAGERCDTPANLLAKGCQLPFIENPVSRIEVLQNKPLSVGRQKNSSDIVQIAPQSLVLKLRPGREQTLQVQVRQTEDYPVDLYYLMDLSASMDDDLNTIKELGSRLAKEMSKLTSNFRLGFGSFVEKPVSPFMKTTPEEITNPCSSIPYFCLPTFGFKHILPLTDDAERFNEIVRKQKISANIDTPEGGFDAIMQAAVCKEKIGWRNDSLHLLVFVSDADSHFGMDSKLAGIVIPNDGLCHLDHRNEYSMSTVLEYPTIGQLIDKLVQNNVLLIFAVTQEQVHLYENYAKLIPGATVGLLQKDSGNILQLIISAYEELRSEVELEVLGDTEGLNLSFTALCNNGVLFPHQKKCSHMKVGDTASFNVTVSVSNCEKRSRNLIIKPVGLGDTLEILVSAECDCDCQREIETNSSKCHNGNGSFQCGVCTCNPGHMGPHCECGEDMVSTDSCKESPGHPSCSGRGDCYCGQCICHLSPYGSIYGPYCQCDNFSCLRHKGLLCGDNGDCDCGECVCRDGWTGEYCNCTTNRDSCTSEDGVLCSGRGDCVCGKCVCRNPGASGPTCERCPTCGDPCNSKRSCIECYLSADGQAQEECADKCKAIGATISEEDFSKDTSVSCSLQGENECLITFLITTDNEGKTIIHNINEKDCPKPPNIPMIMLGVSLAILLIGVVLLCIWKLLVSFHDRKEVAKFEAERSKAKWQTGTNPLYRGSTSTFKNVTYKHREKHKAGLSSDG

How the values were obtained:
[1] = target: T1, soluble recombinant human αvβ6 (human) (UniProt P06756+P18564); assay: legend of FIG. 7A
[2] = target: T1, soluble recombinant human αvβ6 (human); assay: ELISA, coated hsαvβ6, cation dependence
[3] = target: T1, soluble recombinant human αvβ6 (human); assay: ELISA: purified mAb on plate-bound hsαvβ6, 1 mM Ca2+ and 1 mM Mg2+, A450
[4] = target: T1, soluble recombinant human αvβ6 (human); assay: blocking ELISA: biotin-αvβ6 pre-mixed with mAb, binding to plate-bound LAP; blocked ligand LAP
[5] = target: T2, αvβ6 on β6-transfected FDC-P1 cells (murine) (UniProt P43406+Q9Z0T9); assay: adhesion of labelled β6-transfected FDC-P1 cells to plate-bound LAP, % binding; blocked ligand LAP
[6] = target: T2, αvβ6 on β6-transfected FDC-P1 cells (murine); assay: cell capture assay: labelled β6-transfected FDC-P1 cells caught on plate-bound mAb, % binding; untransfected FDC-P1 cells as control
[7] = target: T1, soluble recombinant human αvβ6 (human); assay: ELISA, coated hsαvβ6, 10 mM EDTA

Measured: binding

B1: 7.7G5 (antibody, V domains shown)
VH: EVQLQQSGPELVKPGASVKISCKASGYSFTGYFMNWVMQSHGKSLEWIGRIKPYNGDNFYNQKFMGKATLTVDKSSSTVHMELRSLASEDSAVYYCARDRYGTYGMDYWGQGTSVTVSS
VL: QIVLTQSPAIMSASPGEKVTMTCSASSSVSYMHWYQQKSGTSPKRWIYDTSKLASGVPTRFSGSGSGTSYSLTINSMEAEDAATYYCQQWSSHPPTFGAGTKLELK
not listed: [7]
binds: all other assays above

B2: 7.1G10 (antibody, V domains shown)
VH: QVQLQQSGPELVKPGASVRISCKASGYTFTSYYIHWVKQRPGQGLEWIGWLYPGKINTRYNEKFKGKATLIADKSSSTAYMQLSSLTSEDSAVYFCARHVLNGNFDYWGQGTTLTVSS
VL: DIQMTQSPSSLSASLGERVSLTCRASQEISGYLSWLQQKPDGSIKRLIYAASTLDSGVPKRFSGSRSGADYSLTISSLESEDFADYYCLQYATYPYTFGGGTKLEIK
not listed: [2]
binds: all other assays above
